Results are given in words; binding and its absence hold for the method and conditions named. In cells and extracts the contact can be indirect. Some results given as binding are weak or reduced against the parent protein; the word gives no strength. For part of these data: Sequences can lack the tags named with a protein. Values belong to the binder of their own block, whether it stands above or below them.
Legend:
[1] = molecular target: C-terminal hemagglutinin (HA)-tagged EGFR (human) (UniProt P00533); assay: co-IP; HEK293T cells transfected with indicated combinations of tagged constructs, Co-IP assay; precipitating antibody not told; with increasing TMEM25 in Fig. 4f
[2] = molecular target: EGFR, endogenous in MDA-MB-231 cells (human (endogenous in MDA-MB-231)) (UniProt P00533); assay: co-IP; endogenous proteins, MDA-MB-231 cell lysates (TNTE 0.5% Triton X-100 lysis buffer, protein G agarose, 4 °C, 3 h); anti-TMEM25 IP or anti-EGFR IP; wild-type or TMEM25 knockout cells for EGFR with STAT3
[3] = molecular target: C-terminal Flag-tagged EGFR, full length (F) (human) (UniProt P00533); assay: co-IP; HEK293T cells transfected with tagged constructs; anti-Flag IP followed by immunoblotting; TNTE 0.5% Triton X-100 lysis buffer

B1: TMEM25, overexpressed in HEK293T (Fig. 4f) (protein, UniProt Q86YD3 27-366)
chain: ELEPQIDGQTWAERALRENERHAFTCRVAGGPGTPRLAWYLDGQLQEASTSRLLSVGGEAFSGGTSTFTVTAHRAQHELNCSLQDPRSGRSANASVILNVQFKPEIAQVGAKYQEAQGPGLLVVLFALVRANPPANVTWIDQDGPVTVNTSDFLVLDAQNYPWLTNHTVQLQLRSLAHNLSVVATNDVGVTSASLPAPGLLATRVEVPLLGIVVAAGLALGTLVGFSTLVACLVCRKEKKTKGPSRHPSLISSDSNNLKLNNVRLPRENMSLPSNLQLNDLTPDSRAVKPADRQMAQNNSRPELLDPEPGGLLTSQGFIRLPVLGYIYRVSSVSSDEIWL
binding [1]: binds

binding [2]: binds
B2: TMEM25, endogenous in MDA-MB-231 cells (protein, UniProt Q86YD3 27-366)
chain: B1 chain

binding [3]: binds
B3: C-terminal green fluorescent protein (GFP)-tagged TMEM25, full length (F) (protein, UniProt Q86YD3 27-366)
chain: B1 chain
